Data reported in the supplement of paper PMC8256030.
Where “and” joins values, the source holds several entries; their conditions need not be identical. Identical values can stand only once. Counter-ions that a name gives are not always drawn. This is one part of the list. This data set is noisy: repeats of one test often differ as much as different tests do.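 HEK293T cells were given each compound shortly before transfection with a reporter in which red mCherry is followed by the SARS-CoV-2 frameshift element and then GFP in the −1 frame, so GFP appears only after frameshifting.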

Key:
[1] = system: SARS-CoV-2 -1 PRF reporter mCherry-FSE-GFP(-1); test: mCherry (red) intensity as percent of control; higher = higher upstream reporter expression; settings: 10 µM; 24 h; HEK293T
[2] = system: SARS-CoV-2 -1 PRF reporter mCherry-FSE-GFP(-1); test: percent effect, decrease of GFP/mCherry ratio (-1 PRF reporter) relative to controls; higher = stronger frameshift inhibition; settings: 10 µM; 24 h; HEK293T

SMILES	mCherry [1]	percent effect [2]
CCC/C=C\C=C/C(=O)N[C@@H](CC(N)=O)C(=O)NC(CC(N)=O)C(=O)N[C@@H](C(=O)N[C@H](CCCN)C(=O)N[C@@H](C(=O)N[C@@H](C(=O)N[C@@H](C(=O)N[C@H](C(=O)N[C@@H](Cc1ccccc1)C(=O)N[C@H](CCCN)C(=O)NC(C(=O)N[C@H](C(=O)NC(C(=O)NCC(=O)N[C@@H](CC(C)C)C(=O)N[C@H](C)C(=O)NC(C(=O)O)C1CCC(O)C(Cl)C1)C1CCC(O)CC1)[C@H](C)O)C1CCC(O)CC1)[C@H](C)O)C1CCC(O)CC1)C1CCC(O)CC1)[C@H](C)O)C1CCC(O)CC1 (some centres undefined)	95.6%	-3.27%
CC1(C)S[C@@H]2[C@H](NC(=O)[C@H](N)c3ccc(O)cc3)C(=O)N2[C@H]1C(=O)O	90%	2.27%
C[C@]12CCC(=O)C=C1C=C[C@@H]1[C@@H]2CC[C@@]2(C)[C@H]1CC[C@@]21CCC(=O)O1	109%	-3.65%
CN(C)CCc1c[nH]c2ccc(Cn3cncn3)cc12 [rizatriptan]	110%	3.96%
CCCCCCCCCCCCOS(=O)(=O)[O-].[Na+] [Sodium lauryl sulfate]	92.2%	-0.215%
CCn1nc(C(=O)O)c(=O)c2cc3c(cc21)OCO3 [cinoxacin]	142%	-3.79%
CNCCCC1c2ccccc2C=Cc2ccccc21	134%	1.07%
CC(=O)N[C@@H](C=O)[C@@H](O)[C@H](O)[C@H](O)CO	105%	-2.81%
CCC(=O)c1c(O)cc(O)cc1O [flopropione]	91%	3.62%
NC(=O)c1ccccc1O [salicylamide]	92.9%	-1.55%
COc1ccc(C(=O)c2ccc(C)cc2)c(O)c1 [mexenone]	110%	0.796%
C#CCOC[C@H]1CO[C@](Cn2ccnc2)(c2ccc(Cl)cc2Cl)O1 [parconazole]	69.3%	-1.89%
CC(C)OC(=O)c1cc2c(OCC(O)CNC(C)(C)C)cccc2[nH]1 (centres undefined) [carpindolol]	102%	1.2%
NC(=O)C1(N2CCCCC2)CCN(CCCC(=O)c2ccc(F)cc2)CC1 [pipamperone]	136%	5.2%
CCC[C@@H]1C[C@@H](C(=O)N[C@@H]([C@H]2O[C@H](SC)[C@H](O)[C@@H](O)[C@H]2O)[C@H](C)Cl)N(C)C1 [Clindamycin]	123%	-1.7%
CC(C)[C@@H]1NC(=O)[C@H](CCCCN)NC(=O)[C@@H](Cc2c[nH]c3ccccc23)NC(=O)[C@H](Cc2ccc(O)cc2)NC(=O)[C@H](C)N(C)C(=O)[C@H](Cc2ccccc2)NC1=O [seglitide]	95.6%	-0.587%
O=C(O)CCCCCCCC(=O)O [azelaic acid]	115%	-9.57%
c1ccc2oc(-c3ccncc3)cc2c1 [pyridarone]	95.3%	-0.57%
COc1ccc(C(=O)CC(=O)c2ccc(C(C)(C)C)cc2)cc1 [avobenzone]	106%	-0.875%
CN(CCc1ccccc1)CCc1ccccc1 [demelverine]	97.6%	-7.37%
CN(C)[C@@H]1C(=O)C(C(N)=O)=C(O)[C@@]2(O)C(=O)C3=C(O)c4c(O)cccc4C[C@H]3C[C@@H]12 [sancycline]	45.2%	0.667%
CCCC(CCC)C(=O)O [valproic acid]	102% and 104%	0.623% and -8.71%
O=C(CNC(=O)c1ccc(Cl)cc1)NO [benurestat]	98.3%	-2.47%

SMILES	mCherry [1]	percent effect [2]
CC(C)(C)NCC(O)COc1ccc(NC(=O)NC2CCCCC2)cc1 (centres undefined) [talinolol]	72.7%	-6.89%
CCCCC1C(=O)NN(c2ccccc2)C1=O (centres undefined) [mofebutazone]	52.1%	-1.02%
CNC[C@H](O)[C@@H](O)[C@H](O)[C@H](O)CO	79.9%	-3.22%
NC(=O)C[C@H](N)C(=O)O [L-Asparagine]	25.5%	-5.19%
COc1ccc(CN(CCN(C)C)c2ncccn2)cc1 [thonzylamine]	108%	1.49%
CC1(C)S[C@@H]2[C@H](NC(=O)[C@H](NC(=O)N3CCNC3=O)c3ccccc3)C(=O)N2[C@H]1C(=O)O	85.7%	-0.723%
O=C(O)c1ccccc1NCCc1ccccc1 [enfenamic acid]	96.9%	0.0628%
C=C[C@]1(C)C[C@@H](OC(=O)CS[C@@H]2C[C@H]3CC[C@@H](C2)N3C)[C@]2(C)[C@H](C)CC[C@]3(CCC(=O)[C@H]32)[C@@H](C)[C@@H]1O [retapamulin]	112%	-9.82%
C/N=C(\NC)NCc1ccccc1 [betanidine]	139%	0.689%
COc1ccc2c(c1OC)C(=O)O[C@@H]2[C@H]1c2c(cc3c(c2OC)OCO3)CCN1C [noscapine]	95.1%	-3.87%
C=C1[C@H](CO)[C@@H](O)C[C@@H]1n1cnc2c(=O)[nH]c(N)nc21 [entecavir]	54.2%	-9.95%
CC[C@@H]1C(=O)N(C)c2cnc(Nc3ccc(C(=O)NC4CCN(C)CC4)cc3OC)nc2N1C1CCCC1	674%	-6.47%
C=C1/C(=C\C=C2/CCC[C@]3(C)[C@@H]([C@H](C)OCCC(C)(C)O)CC[C@@H]23)C[C@@H](O)C[C@@H]1O [maxacalcitol]	86.5%	0.661%
CCCCC[C@](C)(O)/C=C/[C@@H]1[C@@H](C/C=C\CCCC(=O)O)[C@@H](O)C[C@H]1O [Carboprost Tromethamine]	88%	-3.62%
CC(=O)N[C@@H](CCC(N)=O)C(=O)O [aceglutamide]	101%	-2.05%
CCCN(CCC)CCc1cccc2c1CC(=O)N2 [ropinirole]	86.4%	0.12%
CCN(Cc1ccncc1)C(=O)C(CO)c1ccccc1 (centres undefined) [Tropicamide]	100%	1.04%
CN(CC1(C)CCCO1)S(=O)(=O)c1ccc(Cl)c(S(N)(=O)=O)c1 (centres undefined) [mefruside]	65.2%	0.977%
CO[C@@]1(NC(=O)C2SC(=C(C(N)=O)C(=O)O)S2)C(=O)N2C(C(=O)O)=C(CSc3nnnn3C)CS[C@@H]21 (some centres undefined) [Cefotan]	81.9%	-5.16%
CC(NCCCCc1ccccc1)C(O)c1ccc2c(c1)CCS2 (centres undefined) [tibalosin]	54.5%	-6.89%
CCCOC(=O)Cn1cc(I)c(=O)c(I)c1 [propyliodone]	87.7%	-4.67%
COc1cc(C(C)=O)ccc1OCCCN1CCC(c2noc3cc(F)ccc23)CC1 [iloperidone]	83.8%	-2.03%
NC(N)=NC(=O)Cc1c(Cl)cccc1Cl [Guanfacine·HCl]	106%	-1.17%

SMILES	mCherry [1]	percent effect [2]
CCC[C@@H]1C[C@@H](C(=O)N[C@@H]([C@H]2O[C@H](SC)[C@H](O)[C@@H](O)[C@H]2O)[C@H](C)Cl)N(C)C1	96.1%	0.376%
CCC(C)CCCCC(=O)NCC[C@@H]1NC(=O)[C@H](CC(C)C)NC(=O)[C@H](CCN)NC(=O)[C@H](CC(C)C)NC(=O)[C@H](CCN)NC(=O)[C@H](CCN)NC(=O)[C@H](CCN)NC(=O)[C@H]([C@@H](C)O)NC1=O (some centres undefined) [colistimethate sodium]	113%	-8.53%
O=C1CN(/N=C/c2ccc([N+](=O)[O-])o2)C(=O)N1CO [nifurtoinol]	88%	-9.34%
N=C(N)NCc1cccc(I)c1 [Iobenguane]	89.6%	-4.5%
CC(=O)NCCCS(=O)(=O)O	137%	1.72%
CCNC(=O)CCC/C=C\C[C@@H]1[C@@H](/C=C/[C@@H](O)CCc2ccccc2)[C@H](O)C[C@@H]1O [bimatoprost]	104%	0.644%
O=c1[nH]cnc2c([C@@H]3N[C@H](CO)[C@@H](O)[C@H]3O)c[nH]c12 [forodesine]	102%	1.02%
OC[C@@H](O)[C@@H](O)CO	104%	1.45%
COc1ccc(/C=C/C(=O)Nc2ccccc2C(=O)O)cc1OC [Tranilast]	94.8%	1.35%
C=CC[C@@H]1/C=C(\C)C[C@H](C)C[C@H](OC)[C@H]2O[C@@](O)(C(=O)C(=O)N3CCCC[C@H]3C(=O)O[C@H](/C(C)=C/[C@@H]3CC[C@@H](O)[C@H](OC)C3)[C@H](C)[C@@H](O)CC1=O)[C@H](C)C[C@@H]2OC [Tacrolimus]	90%	-0.444%
CCCN1CCCC[C@H]1C(=O)Nc1c(C)cccc1C [ropivacaine]	111%	4.36%
C[C@H](Cc1ccc(O)c(O)c1)[C@@H](C)Cc1ccc(O)c(O)c1 [Masoprocol]	81.2%	-2.94%
CC(C)N(CCC(CCN1CCCCC1)(C(N)=O)c1ccccc1Cl)C(C)C (centres undefined) [disobutamide]	78%	-5.19%
CC(=O)OCC1=C(C(=O)O)N2C(=O)[C@@H](NC(=O)Cc3cccs3)[C@H]2SC1 [cefalotin]	79.9%	-7.74%
O=C(O)[C@@H]1[C@H]2C[C@H]3c4[nH]c5ccccc5c4CCN3C[C@@H]2CC[C@@H]1O [yohimbic acid]	85.2%	3.81%
Cc1cnc(NC(=O)C2=C(O)c3ccccc3S(=O)(=O)N2C)s1 [meloxicam]	93.2%	-1.62%
C[C@]12CC[C@@H]3c4ccc(O)cc4C[C@@H](CCCCCCCCC[S+]([O-])CCCC(F)(F)C(F)(F)F)[C@H]3[C@@H]1CC[C@@H]2O (some centres undefined) [Faslodex]	97.6%	-7.99%
C[C@]12CCC(=O)C=C1[C@@H]1C[C@@H]1[C@H]1[C@@H]3[C@@H]4C[C@@H]4[C@@]4(CCC(=O)O4)[C@@]3(C)CC[C@@H]12 [drospirenone]	104% and 112%	-0.864% and -1.64%
CCC1NC(=O)c2cc(S(N)(=O)=O)c(Cl)cc2N1 (centres undefined) [quinethazone]	87.7%	0.533%
CC(C)[N+]1(C)[C@@H]2CC[C@H]1C[C@@H](OC(=O)C(CO)c1ccccc1)C2 (some centres undefined)	95.7%	7.29%
Cc1c(O)c(=O)ccn1C [deferiprone]	114%	1.68%
